In article PMC3494705:
These are yes or no findings as the source states them, for the method shown.

Target: recombinant Anopheles gambiae SRPN6 (rAgSRPN6), full-length, excluding the signal peptide (Anopheles gambiae)
Experiment: AUC; sedimentation velocity; rAgSRPN6 1.0 mg/ml in 20 mM Tris, 250 mM NaCl, pH 8.0; 49,000 rpm, 25°C; monitored at 280 nm; g(s*) fit in DCDT+; both purified

- binding: no binding (tested: 1.0 mg/ml)
B1: recombinant Anopheles gambiae SRPN6 (rAgSRPN6), full-length, excluding the signal peptide (protein)
chain: QWNRYYTQAPQARYTPMVRTAQRVALRHSFETDGTPAPSTVRPRPPAPPTNAPSQLPALTPDNDAKISQLVVDFMMRISRTLPQQQSRTELFSPLSIITVANLLFLGSGGSTHEEFGKVLTPSSMNWKRMHQRYGNVLANLMSPEPIDSRRDQWRRQTCPRDDDYEDGEGGPAPKSQVIRVANGIFYQKDLPMRQQYVMLARSLYGALIQPIDPQASAASTALINRWVSDVTAGKIRNMLEGPLSPSSSVVIANALYFKAKWKTQFEPLVTRDAPFFPDGLDGPSYRVKMMSMSGCLPFYRVRDSLDTTIVGLPYRDDTSTMYLIQPANSSRTAIRRLQATLTGKMLDSWISQMKLQSTMVRLPKMHLRNSVDLLQSFQKLGFNSILSPAKSDLSNMIDSSSSAGPKPYVNQILHKLDLTIDEEGTEGAAATSALVDRIGSQRQFNGNAPFLIYLRHDATGLPLFYGPIFDPR
